Measurements reported in paper PMC10228019.

By UniProt entry, the sequences of proteins in these tests, tags left out.
UniProt Q9Y3S2: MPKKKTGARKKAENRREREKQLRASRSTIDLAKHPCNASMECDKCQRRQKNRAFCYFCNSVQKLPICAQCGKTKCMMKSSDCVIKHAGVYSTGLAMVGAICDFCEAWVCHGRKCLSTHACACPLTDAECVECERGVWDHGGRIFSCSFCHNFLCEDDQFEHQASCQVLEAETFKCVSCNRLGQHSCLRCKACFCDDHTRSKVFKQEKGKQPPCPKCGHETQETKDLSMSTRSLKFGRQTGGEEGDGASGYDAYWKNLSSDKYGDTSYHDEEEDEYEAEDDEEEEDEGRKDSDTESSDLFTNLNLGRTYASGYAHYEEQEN
UniProt P68104: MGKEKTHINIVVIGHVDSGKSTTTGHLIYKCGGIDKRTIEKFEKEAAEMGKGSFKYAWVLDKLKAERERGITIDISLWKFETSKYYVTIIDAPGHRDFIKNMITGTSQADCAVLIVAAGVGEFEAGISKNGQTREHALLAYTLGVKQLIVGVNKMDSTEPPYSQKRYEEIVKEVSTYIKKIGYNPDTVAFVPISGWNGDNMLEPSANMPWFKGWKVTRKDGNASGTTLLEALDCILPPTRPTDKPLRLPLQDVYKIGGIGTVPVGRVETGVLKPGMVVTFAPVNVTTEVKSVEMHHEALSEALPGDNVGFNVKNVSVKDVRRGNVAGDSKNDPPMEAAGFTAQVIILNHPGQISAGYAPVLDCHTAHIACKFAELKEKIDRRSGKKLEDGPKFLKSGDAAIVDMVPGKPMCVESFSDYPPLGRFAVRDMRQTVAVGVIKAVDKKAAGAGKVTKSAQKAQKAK
UniProt P16403: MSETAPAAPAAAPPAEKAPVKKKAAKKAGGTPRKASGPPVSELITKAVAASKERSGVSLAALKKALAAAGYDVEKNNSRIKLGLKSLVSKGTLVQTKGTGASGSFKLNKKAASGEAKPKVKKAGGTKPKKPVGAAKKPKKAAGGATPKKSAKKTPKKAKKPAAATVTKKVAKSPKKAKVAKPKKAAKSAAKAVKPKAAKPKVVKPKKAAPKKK
UniProt O14744: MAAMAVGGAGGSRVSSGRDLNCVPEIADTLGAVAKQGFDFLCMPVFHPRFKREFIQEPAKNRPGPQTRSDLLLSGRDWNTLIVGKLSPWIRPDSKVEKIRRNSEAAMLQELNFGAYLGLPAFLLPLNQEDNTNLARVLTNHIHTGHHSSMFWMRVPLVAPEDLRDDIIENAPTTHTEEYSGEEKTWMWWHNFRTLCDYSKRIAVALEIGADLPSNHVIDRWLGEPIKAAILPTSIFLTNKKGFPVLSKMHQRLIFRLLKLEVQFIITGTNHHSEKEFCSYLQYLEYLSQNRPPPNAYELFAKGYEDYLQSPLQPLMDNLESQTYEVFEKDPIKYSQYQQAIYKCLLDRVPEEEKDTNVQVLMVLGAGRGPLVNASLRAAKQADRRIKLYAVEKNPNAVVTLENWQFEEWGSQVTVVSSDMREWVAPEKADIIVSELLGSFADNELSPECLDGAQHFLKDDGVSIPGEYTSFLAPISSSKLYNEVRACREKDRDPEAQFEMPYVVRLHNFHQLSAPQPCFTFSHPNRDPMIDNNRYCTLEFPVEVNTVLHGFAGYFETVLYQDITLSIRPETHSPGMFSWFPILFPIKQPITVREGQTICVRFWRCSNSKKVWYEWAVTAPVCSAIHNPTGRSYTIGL

Target: FLAG-NOA36 (ZNF330/NOA36, Zinc Finger protein 330), expressed in HeLa cells (human) (UniProt Q9Y3S2)
Assay: affinity purification with mass spectrometry; HeLa cells transfected with FLAG-NOA36 or the empty FLAG vector; lysis in 0.5% NP40, 150 mM NaCl, 10 mM Tris pH 7.5, 0.5 mM EDTA; anti-FLAG M2 magnetic beads; elution with 0.2 M glycine HCl pH 3.0; LC-MS; proteins common to the empty vector sample discarded

binding, binds:
HSPA8 (endogenous, HeLa) (from UniProt P11142-1 1-646)
Elongation factor 1-α-1 (from UniProt P68104 1-462)
histone H1.2 (from UniProt P16403 1-213)
Protein arginine N-methyltransferase 5 (from UniProt O14744 1-637) (enzyme)

Results are given in words; binding and its absence hold for the method and conditions named. In cells and extracts the contact can be indirect. Here binding means that the protein was enriched with, or labelled near, the bait; the list need not be complete.
